Binding data for one molecule are collected here from paper doi:10.1101/2021.07.15.452481.

Results are given in words; binding and its absence hold for the method and conditions named.

This experiment deals with Thermotoga maritima YidC (Thermotoga maritima) (UniProt Q9X1H2). The experiment in a line: SEC.

B1: Thermotoga maritima YidC (protein, UniProt Q9X1H2 1-445)
chain: MVLRKVVAILLAILPIFLFAVEPIKVVRSEKEIVVLTRFEEYHFDLEKGILKDFYTLVDGRKHVFTYGNDGFDVLDEGTPLTVIEEPIVTGVGKVSEGFSDEVSIVYNYGYVKKIFTIKNNENYTFFVDIESSKPVDVTVPRVSVDTSTDRYLENYFASFNPKTRTLVLLKHDEGLLFEGTLKVNGQKRFIVFMGPNKRTLIKKAFPEDYDVLIKALVNIPGFNKWYDSVFYGLVWFFWWLKDLTKNFGWAIMLFTLIVRLILYPLYHAQTKSLINMRKLQPQIEAIKKKYKDPTKQQEALLKLYREAGVNPASGCLMLLIQLPIFMLLWSVIRYYVEEFAYSGSFLIWKDLSAGGFSNNWLFLVITIVASYYTTLLTSQDARTAWQGIIMSVIFPFLFVGLPSGLFLYYATNTLIQLAVTYYTYKRYKIKGLTTRELLGLPKKA
With B1, the binding entry is “no binding”.
